Results as given in US9750719B2, “Tetrazole compounds as calcium channel blockers” (CONVERGENCE PHARMACEUTICALS LIMITED, priority 2010, dated 2017).
Some entries share one result that the patent states for a list of compounds.

By UniProt entry, the sequences of proteins in these tests, tags left out. Where a name states a change or a piece, a line headed by the entry shows the natural chain unless it says otherwise.
UniProt Q00975, whole entry: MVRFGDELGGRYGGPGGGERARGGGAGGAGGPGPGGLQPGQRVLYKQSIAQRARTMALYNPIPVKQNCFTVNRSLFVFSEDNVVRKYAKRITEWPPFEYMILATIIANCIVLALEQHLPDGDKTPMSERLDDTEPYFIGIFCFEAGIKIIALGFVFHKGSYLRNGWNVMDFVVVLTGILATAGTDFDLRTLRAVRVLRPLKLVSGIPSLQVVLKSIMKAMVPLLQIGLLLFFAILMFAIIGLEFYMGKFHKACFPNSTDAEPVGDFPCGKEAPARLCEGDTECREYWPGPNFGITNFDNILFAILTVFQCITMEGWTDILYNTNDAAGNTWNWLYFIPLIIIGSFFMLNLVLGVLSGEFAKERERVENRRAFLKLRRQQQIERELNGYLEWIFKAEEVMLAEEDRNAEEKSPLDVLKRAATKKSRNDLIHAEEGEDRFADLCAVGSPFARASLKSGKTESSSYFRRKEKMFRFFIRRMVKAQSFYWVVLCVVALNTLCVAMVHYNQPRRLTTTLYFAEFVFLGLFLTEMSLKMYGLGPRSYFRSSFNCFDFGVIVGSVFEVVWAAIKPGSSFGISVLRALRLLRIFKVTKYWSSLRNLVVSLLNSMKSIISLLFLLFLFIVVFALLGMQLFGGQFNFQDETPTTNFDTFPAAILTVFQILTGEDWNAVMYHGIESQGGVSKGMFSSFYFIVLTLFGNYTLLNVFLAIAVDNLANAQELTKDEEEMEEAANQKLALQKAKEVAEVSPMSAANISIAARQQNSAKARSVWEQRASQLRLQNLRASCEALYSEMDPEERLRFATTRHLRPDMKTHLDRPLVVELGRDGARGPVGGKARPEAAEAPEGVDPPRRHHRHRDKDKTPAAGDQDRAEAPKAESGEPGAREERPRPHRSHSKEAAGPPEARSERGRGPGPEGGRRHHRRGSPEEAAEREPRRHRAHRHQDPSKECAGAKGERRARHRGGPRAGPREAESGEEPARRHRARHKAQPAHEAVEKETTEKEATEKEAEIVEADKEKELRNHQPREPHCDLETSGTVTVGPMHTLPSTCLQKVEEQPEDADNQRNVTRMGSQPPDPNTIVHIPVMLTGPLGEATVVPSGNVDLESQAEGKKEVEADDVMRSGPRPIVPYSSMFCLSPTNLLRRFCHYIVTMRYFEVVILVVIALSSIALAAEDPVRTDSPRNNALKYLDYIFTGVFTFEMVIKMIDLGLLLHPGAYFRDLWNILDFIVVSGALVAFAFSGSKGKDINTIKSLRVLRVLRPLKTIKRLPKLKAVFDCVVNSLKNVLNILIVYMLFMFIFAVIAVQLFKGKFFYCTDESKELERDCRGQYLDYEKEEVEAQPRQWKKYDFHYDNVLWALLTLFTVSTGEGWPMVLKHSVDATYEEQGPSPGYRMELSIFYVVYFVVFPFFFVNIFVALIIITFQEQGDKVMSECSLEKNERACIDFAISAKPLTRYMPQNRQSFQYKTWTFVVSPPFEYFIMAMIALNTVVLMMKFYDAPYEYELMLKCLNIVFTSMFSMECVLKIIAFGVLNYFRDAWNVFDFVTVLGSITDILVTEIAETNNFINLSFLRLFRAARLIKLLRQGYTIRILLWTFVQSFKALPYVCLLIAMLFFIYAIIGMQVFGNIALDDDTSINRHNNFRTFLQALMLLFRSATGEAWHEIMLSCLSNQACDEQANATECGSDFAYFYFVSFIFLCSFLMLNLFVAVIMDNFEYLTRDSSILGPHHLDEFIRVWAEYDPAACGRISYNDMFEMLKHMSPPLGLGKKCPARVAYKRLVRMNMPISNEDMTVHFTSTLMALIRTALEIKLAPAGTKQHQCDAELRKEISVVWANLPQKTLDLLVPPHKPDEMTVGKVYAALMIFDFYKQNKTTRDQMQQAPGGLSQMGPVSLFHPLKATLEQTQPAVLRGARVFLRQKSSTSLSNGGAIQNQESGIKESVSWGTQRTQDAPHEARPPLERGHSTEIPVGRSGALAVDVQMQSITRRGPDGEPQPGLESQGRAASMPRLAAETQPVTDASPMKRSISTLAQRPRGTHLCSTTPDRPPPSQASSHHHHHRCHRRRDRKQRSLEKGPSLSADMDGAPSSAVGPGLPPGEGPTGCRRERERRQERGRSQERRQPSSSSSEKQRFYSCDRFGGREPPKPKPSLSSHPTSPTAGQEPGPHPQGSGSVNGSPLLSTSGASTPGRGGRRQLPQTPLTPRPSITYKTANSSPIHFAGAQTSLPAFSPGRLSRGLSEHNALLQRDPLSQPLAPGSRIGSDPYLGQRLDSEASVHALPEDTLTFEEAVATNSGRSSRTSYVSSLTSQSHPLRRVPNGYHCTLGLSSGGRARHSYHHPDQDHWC

Target: T1, human Cav2.2 α (α1B) subunit, along with the human β3 and α2δ1 auxiliary subunits (Homo sapiens, UniProt Q00975)
T1 construct: expressed in transfected cells
Assay: hCav2.2 assay, IonWorks planar array electrophysiology in stable HEK293 cell line
Format: cell-based
Settings: for use-dependent pUD30: concentration producing 30% use-dependent inhibition, 10th versus 1st depolarising pulse, 10 Hz, -90 mV to +10 mV, HEK293 cells
Method: Compounds as defined in the first or second aspect may be tested for in vitro biological activity in the hCav2.2 assay in accordance with the following studies:
Stable cell lines expressing the human Cav2.2 α (α1B) subunit, along with the human β3 and α2δ1 auxiliary subunits were created following sequential transfection and selection of human embryonic kidney (HEK293) cells. HEK293 cells were cultured in Dulbecco's modified Eagles media/F12 media (Invitrogen, Cat #041-95750V) containing 10% fetal bovine serum, with added L-glutamine (2 mM; Invitrogen, Cat #25030-024) and non-essential amino acids (5%; Invitrogen, Cat #11140-035). Initially HEK293 cells were transfected with two plasmid vectors for expression of the hCav2.2 α subunit (pCIN5-hCav2.2 which carries a neomycin resistance marker) and the hCav β3 subunit (pCIH-hCav β3 which carries a hygromycin resistance marker). Clonal cell lines were isolated following selection in media supplemented with 0.4 mg ml^−1 Geneticin G418 (Invitrogen, Cat #10131-027) and 0.1 mg ml^−1 hygromycin (Invitrogen, Cat #10687-010). These clonal cell lines were assessed for Cav2.2 α/β3-mediated current expression using the IonWorks planar array electrophysiology technology (described below). A clonal line was identified that gave a reasonable level of functional Cav2.2 α/β3 current expression. This cell line was transfected with a plasmid vector for expression of the human α2δ1 subunit (pCIP-α2δ1 which carries a puromycin resistance marker) and clonal cell lines isolated following selection in media containing 0.62 μg ml^−1 puromycin (Sigma, Cat #P-7255), in addition to 0.4 mg ml^−1 Geneticin G418 and 0.1 mg ml^−1 hygromycin. Several cell lines were identified that gave robust levels of Cav2.2 α/β3/α2δ1-mediated current expression and one of these was selected for compound profiling. Expression of all three subunits within this cell line was continuously maintained by the inclusion of G418 (0.4 mg ml^−1), hygromycin (0.1 mg ml^−1) and puromycin (0.62 μg ml^−1). Cells were maintained at 37° C. in a humidified environment containing 5% CO2 in air. Cells were liberated from the T175 culture flasks for passage and harvesting using TrpLE (Invitrogen, Cat #12604-013).
Cells were grown to 30-60% confluence in T175 flasks and maintained at 30° C. for 24 hrs prior to recording. Cells were lifted by removing the growth media, washing with Ca^2+ free PBS (Invitrogen, Cat #14190-094) and incubating with 3 ml of warmed (37° C.) TrpLE (Invitrogen, Cat #12604-013) for 6 minutes. Lifted cells were suspended in 10 ml of extracellular buffer. Cell suspension was then placed into a 15 ml tube and centrifuged for 2 minutes at 700 rpm. After centrifugation, the supernatant was removed and the cell pellet was resuspended in 4.5 ml of extracellular solution.
Currents were recorded at room temperature (21-23° C.) using the IonWorks planar array electrophysiology technology (Molecular Devices Corp.). Stimulation protocols and data acquisition were carried out using a microcomputer (Dell Pentium 4). In order to determine planar electrode hole resistances (Rp), a 10 mV, 160 ms potential difference was applied across each hole. These measurements were performed before cell addition. After cell addition a seal test was performed prior to antibiotic (amphotericin) circulation to achieve intracellular access. Leak subtraction was conducted in all experiments by applying a 160 ms hyperpolarizing (10 mV) prepulse 200 ms before the test pulses to measure leak conductance. Test pulses stepping from the holding potential (VH) of −90 mV to +10 mV were applied for 20 ms and repeated 10 times at a frequency of 10 Hz. In all experiments, the test pulse protocol was performed in the absence (pre-read) and presence (post-read) of a compound. Pre- and post-reads were separated by a compound addition followed by a 3-3.5 min incubation. […]

CC(=O)N1CCN(Cc2nnnn2-c2ccc(C#N)c(C(F)(F)F)c2)CC1 [Compound 102, 4-{5-[(4-acetyl-1-piperazinyl)methyl]-1H-tetrazol-1-yl}-2-(trifluoromethyl)benzonitrile]
activity in the hCav2.2 assay: showed activity

CN1CCCN(Cc2nnnn2-c2ccc(C#N)c(C(F)(F)F)c2)CC1.Cl [Compound 123, 4-{5-[(4-methylhexahydro-1H-1,4-diazepin-1-yl)methyl]-1H-tetrazol-1-yl}-2-(trifluoromethyl)benzonitrile hydrochloride]
activity in the hCav2.2 assay: showed activity

Cc1c(-n2nnnc2CN2C[C@@H]3C[C@H]2CO3)ccc(C#N)c1C(F)(F)F.Cl [Compound 129, 3-methyl-4-{5-[(1S,4S)-2-oxa-5-azabicyclo[2.2.1]hept-5-ylmethyl]-1H-tetrazol-1-yl}-2-(trifluoromethyl)bbenzonitrile hydrochloride]
activity in the hCav2.2 assay: showed activity | use-dependent pUD30 (hydrochloride): ≥ 5.5

N#Cc1ccc(-n2nnnc2CN2CCNCC2)cc1C(F)(F)F [Compound 101, 4-[5-(1-piperazinylmethyl)-1H-tetrazol-1-yl]-2-(trifluoromethyl)benzonitrile]
activity in the hCav2.2 assay: showed activity

Cl.N#Cc1ccc(-n2nnnc2CN2C[C@@H]3C[C@H]2CO3)cc1C(F)(F)F [Compound 44, 4-{5-[(1S,4S)-2-Oxa-5-azabicyclo[2.2.1]hept-5-ylmethyl]-1H-tetrazol-1-yl}-2-(trifluoromethyl)benzonitrile]
activity in the hCav2.2 assay: showed activity

Cl.N#Cc1ccc(-n2nnnc2CN2[C@@H]3CC[C@H]2COC3)cc1C(F)(F)F [Compound 103, 4-[5-(3-oxa-8-azabicyclo[3.2.1]oct-8-ylmethyl)-1H-tetrazol-1-yl]-2-(trifluoromethyl)benzonitrile hydrochloride]
activity in the hCav2.2 assay: showed activity | use-dependent pUD30 (hydrochloride): ≥ 5.5 | use-dependent pUD30 (listed as compound 103, hydrochloride): ≥ 4.5

Cl.FC(F)(F)c1ccc(-n2nnnc2CN2C[C@@H]3C[C@H]2CO3)nc1 [Compound 58, (1S,4S)-5-({1-[5-(Trifluoromethyl)-2-pyridinyl]-1H-tetrazol-5-yl}methyl)-2-oxa-5-azabicyclo[2.2.1]heptane hydrochloride]
activity in the hCav2.2 assay: showed activity | use-dependent pUD30: ≥ 4.5

CC(C)C(=O)N1CCN(Cc2nnnn2-c2ccc(C#N)c(C(F)(F)F)c2)CC1 [Compound 146, 4-(5-{[4-(2-methylpropanoyl)-1-piperazinyl]methyl}-1H-tetrazol-1-yl)-2-(trifluoromethyl)benzonitrile]
activity in the hCav2.2 assay: showed activity

Cl.N#Cc1ccc(-n2nnnc2CN2CCOCC2)cc1C(F)(F)F [Compound 34, 4-[5-(4-Morpholinylmethyl)-1H-tetrazol-1-yl]-2-(trifluoromethyl)benzonitrile hydrochloride]
activity in the hCav2.2 assay: showed activity | use-dependent pUD30 (hydrochloride): ≥ 4.5 | use-dependent pUD30 (listed as compound 34, hydrochloride): ≥ 5.0

C[C@@H]1CN(Cc2nnnn2-c2ccc(C#N)c(C(F)(F)F)c2)C[C@H](C)O1.Cl [Compound 30, 4-(5-{[cis-2,6-Dimethyl-4-morpholinyl]methyl}-1 H-tetrazol-1-yl)-2-(trifluoromethyl)benzonitrile]
activity in the hCav2.2 assay: showed activity

C[C@@H]1CN(S(C)(=O)=O)C[C@H](C)N1Cc1nnnn1-c1ccc(C#N)c(C(F)(F)F)c1 [Compound 107, 4-(5-{[cis-2,6-Dimethyl-4-(methylsulfonyl)-1-piperazinyl]methyl}-1H-tetrazol-1-yl)-2-(trifluoromethyl)benzonitrile]
activity in the hCav2.2 assay: showed activity

C[C@@H]1COCCN1Cc1nnnn1-c1ccc(C#N)c(C(F)(F)F)c1 [Compound 41, 4-(5-{[(3R)-3-Methyl-4-morpholinyl]methyl}-1H-tetrazol-1-yl)-2-(trifluoromethyl)benzonitrile]
activity in the hCav2.2 assay: showed activity

Cc1c(-n2nnnc2CN2CCOCC2)ccc(C#N)c1C(F)(F)F.Cl [Compound 128, 3-methyl-4-[5-(4-morpholinomethyl)-1H-tetrazol-1-yl]-2-(trifluoromethyl)benzonitrile hydrochloride]
activity in the hCav2.2 assay: showed activity | use-dependent pUD30 (hydrochloride): ≥ 5.5

CN1CCN(Cc2nnnn2-c2ccc(C#N)c(C(F)(F)F)c2)CC1.Cl [Compound 119, 4-{5-[(4-methyl-1-piperazinyl)methyl]-1H-tetrazol-1-yl}-2-(trifluoromethyl)benzonitrile]
activity in the hCav2.2 assay: showed activity | use-dependent pUD30: ≥ 4.5
